Source: PubChem BioAssay AID1159506 (NCATS, 2015).

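Genome-wide siRNA knockdown in TC32 Ewing sarcoma cells, comparing luciferase light from an NR0B1-promoter reporter with a CMV-promoter reporter 48 hours after transfection.
Each siRNA was applied at 20 nM.
A z-score of the log NR0B1-over-CMV signal, less the median of siRNAs with the same seed; more negative means a stronger specific loss of the NR0B1 reporter.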

This is part of the screen; most of the strongest results are not listed here.
Sequences are the guide (antisense) strand, without overhang.

siRNA | gene | seed-corrected z-score
UCUUGUUAUCUGAAGUUCC | ZUFSP | 0.6464
AAAGUAGUCAUAGCGGGAC | GRM2 | 0.2956
UUCUCCAUGAUCCCAAAGC | MRPL22 | -0.5254
AUCCCUGUAAGAGCCGCUC | HOXB5 | -0.2635
AAUCCAUCCGCGAUCAUCC | SLC4A8 | -0.9481
UAUUGAGAUAAUAGUAGCC | TPCN1 | -0.1425
UCAAGGAUGAGGCUAAUGC | IL37 | 1.136
AAUUUGCCCACUGGAGUUC | CDC25C | -0.6718
UAUCCACGAAAUUUGUUCC | NAP1L3 | 0.1571
UCUUGUAACAGAAGCCCAG | RPL9P11 | 1.241
UAUUUGCAGACUUUCGUGU | KLK11 | -0.3978
UUUCUAACCAGAGUAUUUC | PTPRC | 0.0153
UUUAUCCCAACAUAACUCC | TIMM8B | -0.5103
AGAUUUCUGACACUAGUCG | RUFY1 | 1.226
UUGUAGAUACGAUCCAGUG | ANAPC2 | -0.7367
UAUCUAGCACGCUCACCGC | OR13J1 | -0.0974
UUCUGGAAGGCCGAAGUCC | DNLZ | 0.2518
UAUUGUCAUGGAUUCGCGG | UGCG | -0.2368
UAUCGAUCACCUCCUGUUU | IKBKG | -0.7529
UUUGGGCUCACCGUACUUG | MYADML2 | -0.2456
UUCUAGGUUUCUUUCAUUC | TCEAL5 | -0.8994
GUCUUGUCUCCCAAAGUCU | KRT42P | -0.2287
AUAGGUAAUGACAAAGUUC | CTSF | -0.08425
UCACUUGUCACGAACAGGA | KDM6B | 0.03956
UUAGGGACAGUACUCGAGG | OR2A12 | -0.2711
UUUCAUCCAGGUCUCGAUG | DENND6B | -0.9011
UGCUUUCAGAGGCUAAUGG | HUS1 | -0.6463
UUUACAUUGCGGAUGAUGG | RPS28 | 2.595
UCUCCUAUGAGAGUGAGAG | TRA2A | -0.2899
UAGGCAAUGUUAGCUGUCC | LPCAT2 | -0.592
AUAGCCGAGAGUCUUGUUC | COX16 | 0.3672
AGCGGUACAAGUUCACGUG | ATP8A1 | -1.373
UAGGCAUCGGCAUUCACCG | DLL3 | 2.123
UCGCUUUUCACCUUUAUGU | NEFH | 0.2111
AUAAGGUUUCUCGUAAUUG | ZNF322P1 | 0.4173
UUACUCCUCACCAAGCAUG | NUGGC | 1.117
CAGCUGUUGACGAAGGCCA | GPR25 | 1.541
UAAGGUACUCCACGUCUCC | HDAC5 | 0.6817
UAGAUGUAGGCGGAACUCC | DAAM2 | 1.19
AACAUAGUCAGAUUGUUCC | GSDMC | 1.394
UUUAGGGCAGAAUAGUACC | EXOC6 | 0.3974
AUCGCUACCACAACUACAG | GBP5 | 0.497
UCUGUUCUCGUCAUUCACC | LSM14B | -0.6388
UGGUCAAUCCGGAGAGUCC | IFI27 | 0.5509
UCGUUAUCAAACUCGAUCC | ITGA6 | -0.1471
UAAAUUGUAUGUGAAGUCG | ZNF780A | -0.1384
UAAGCCUUGCUUUUCCUCC | RPS27 | 0.403
UCUUGUACCACUUGUCGUG | GRIN3B | -0.4078
UUAGAUAGAGUUCAAUUUG | SERTAD4-AS1 | -0.3487
UUCUCUAUCCGAGAGAAUG | HLA-B | 0.5204
UCCAUUUGGAAAAUCAUUC | SLC25A21 | -0.03234
UGUCUGUAACGAUCUCUGC | REEP4 | -1.195
UAGACUAAAAUGUCUAUUG | POT1 | 0.5181
UUACUGUCAUUGAUACCUC | ARFGEF1 | 0.4382
UUACUGCUAAUGGUAUGGG | CD58 | -0.03139
AAUCUUCCCAUCACUACUC | MRPS26 | 1.196
UUUGCGAUGCGGUUGAAUG | ZNF624 | -0.1705
AAGAUUAAUCAAGCUAUCC | CISD2 | -0.5538
UCAGCGGCUACAAUGUCCA | TBX2 | 0.5245
UUCGUGUAGCCGAACAAGC | CYP8B1 | 0.1468
UUCCGCUUAACUUGGUCCG | ATP2A1 | -0.4174
UCUAUUAACUUGGUCUUGG | MRPL37 | -0.6073
UCAACACUAAAGUUAAGCC | PRDM2 | 0.3014
AGAGGUACUCCUGGUGUCG | IKBKE | -0.7791
UAAGUCAUGAUUUAGGAUC | COX6B1 | -0.4727
UCAGGUACGACGUUCUUGA | CDC42EP2 | -1.048
AAUCUGAUUGAAAACCUGG | SERPINE2 | -0.849
UUGGGUUCAUCCUCUGCUG | ZFYVE27 | 0.5038
UGAUCUUUCCCGGAACUGC | SELE | -0.04657
AUAGGUGAUAGUAAUUAUC | PCDHGA5 | 0.2779
UUUGGAUGCACCUCAGGGC | CCDC120 | 0.5643
UCCUUGAUCAGCUUCACUU | MRPL12 | -0.3292
UUGGUGAGGAGAGAUUUGC | MLIP | 0.09847
UUUGAAGUUGCUGCUAUCC | GRP | -0.4998
UUACGAAUCUCAUAGAUUG | GJD2 | -0.05071
UCUGGAUUUAGGCCGUGAG | LOC644925 | 0.7233

Repeated from the top, 8 entries:

For UCUUGUUAUCUGAAGUUCC against ZUFSP the result was seed-corrected z-score 0.6464.
For AAAGUAGUCAUAGCGGGAC against GRM2 the result was seed-corrected z-score 0.2956.
For UUCUCCAUGAUCCCAAAGC against MRPL22 the result was seed-corrected z-score -0.5254.
For AUCCCUGUAAGAGCCGCUC against HOXB5 the result was seed-corrected z-score -0.2635.
For AAUCCAUCCGCGAUCAUCC against SLC4A8 the result was seed-corrected z-score -0.9481.
For UAUUGAGAUAAUAGUAGCC against TPCN1 the result was seed-corrected z-score -0.1425.
For UCAAGGAUGAGGCUAAUGC against IL37 the result was seed-corrected z-score 1.136.
For AAUUUGCCCACUGGAGUUC against CDC25C the result was seed-corrected z-score -0.6718.